Our source for the activity change, negative = inhibition values is PubChem BioAssay AID912 (National Center for Advancing Translational Sciences (NCATS), 2007).

Most of the hits are listed elsewhere, so they are rarer here than in the full data. Results filed as inconclusive are left out. Active and inactive are the calls of the source. Calls follow the shape of the full dose curve.

The experiment is described as follows: qHTS Assay for Anthrax Lethal Toxin Internalization. Also: nearly all actives have a fitted effect of over 50% in size. As to conditions: Cells, FRET ratio (460/530). (In general: qHTS replaces the single test concentration by a dilution series.)
% is scaled to controls: 0 for no effect and ±100 for the full control effect.

As to `CN1[C@@H]2CC[C@H]1CC(OC(=O)[C@@H](O)c1ccccc1)C2` (some centres not stated), the activity change, negative = inhibition reads like this: (at 3.58 µM (top of the series)) inactive: -1.8%; (at 40 µM (top of the series)) inactive: 10.6%.
